In patent US12729225B2, “Non-canonical SWI/SNF complex and uses thereof” (Dana-Farber Cancer Institute, Inc., priority 2018, dated 2026) one finds Total and Unique data, which are given here for 9 molecules.

Sequences and labels used below:
B1: KRR1 (protein, UniProt Q13601 2-381, looked up)
KRR1 small subunit processome …: ASPSLERPEKGAGKSEFRNQKPKPENQDESELLTVPDGWKEPAFSKEDNPRGLLEESSFATLFPKYREAYLKECWPLVQKALNEHHVNATLDLIEGSMTVCTTKKTFDPYIIIRARDLIKLLARSVSFEQAVRILQDDVACDIIKIGSLVRNKERFVKRRQRLIGPKGSTLKALELLTNCYIMVQGNTVSAIGPFSGLKEVRKVVLDTMKNIHPIYNIKSLMIKRELAKDSELRSQSWERFLPQFKHKNVNKRKEPKKKTVKKEYTPFPPPQPESQIDKELASGEYFLKANQKKRQKMEAIKAKQAEAISKRQEERNKAFIPPKEKPIVKPKEASTETKIDVASIKEKVKKAKNKKLGALTAEEIALKMEADEKKKKKKK
B2: TIMM23B (protein, UniProt Q5SRD1 1-188, looked up)
Mitochondrial import inner …: MEGGGGSGDKTTGVLAGFFGAGEAGYSHADLAGVPLTGMNPLCPYLNVDPRYLVQDTDEFILPTGANKTWGRFELAFFTIGGCCMTGAAFGAMNGLRLGLKETQNMAWSKPGNVQILNMVTRQGALWANTLGSLALLYSAFGVIIEKTRGAEDDLNTVAAGTMTGMLYKCTVSEMALDSPFCVLLSGS
B3: ILVBL (protein, UniProt A1L0T0 1-632, looked up)
2-hydroxyacyl-CoA lyase 2: METPAAAAPAGSLFPSFLLLACGTLVAALLGAAHRLGLFYQLLHKVDKASVRHGGENVAAVLRAHGVRFIFTLVGGHISPLLVACEKLGIRVVDTRHEVTAVFAADAMARLSGTVGVAAVTAGPGLTNTVTAVKNAQMAQSPILLLGGAASTLLQNRGALQAVDQLSLFRPLCKFCVSVRRVRDIVPTLRAAMAAAQSGTPGPVFVELPVDVLYPYFMVQKEMVPAKPPKGLVGRVVSWYLENYLANLFAGAWEPQPEGPLPLDIPQASPQQVQRCVEILSRAKRPLMVLGSQALLTPTSADKLRAAVETLGVPCFLGGMARGLLGRNHPLHIRENRSAALKKADVIVLAGTVCDFRLSYGRVLSHSSKIIIVNRNREEMLLNSDIFWKPQEAVQGDVGSFVLKLVEGLQGQTWAPDWVEELREADRQKEQTFREKAAMPVAQHLNPVQVLQLVEETLPDNSILVVDGGDFVGTAAHLVQPRGPLRWLDPGAFGTLGVGAGFALGAKLCRPDAEVWCLFGDGAFGYSLIEFDTFVRHKIPVMALVGNDAGWTQISREQVPSLGSNVACGLAYTDYHKAAMGLGARGLLLSRENEDQVVKVLHDAQQQCRDGHPVVVNILIGRTDFRDGSIAV
B4: NOLC1 (protein, UniProt Q14978 1-699, looked up)
Nucleolar and coiled-body …: MADAGIRRVVPSDLYPLVLGFLRDNQLSEVANKFAKATGATQQDANASSLLDIYSFWLKSAKVPERKLQANGPVAKKAKKKASSSDSEDSSEEEEEVQGPPAKKAAVPAKRVGLPPGKAAAKASESSSSEESSDDDDEEDQKKQPVQKGVKPQAKAAKAPPKKAKSSDSDSDSSSEDEPPKNQKPKITPVTVKAQTKAPPKPARAAPKIANGKAASSSSSSSSSSSSDDSEEEKAAATPKKTVPKKQVVAKAPVKAATTPTRKSSSSEDSSSDEEEEQKKPMKNKPGPYSSVPPPSAPPPKKSLGTQPPKKAVEKQQPVESSEDSSDESDSSSEEEKKPPTKAVVSKATTKPPPAKKAAESSSDSSDSDSSEDDEAPSKPAGTTKNSSNKPAVTTKSPAVKPAAAPKQPVGGGQKLLTRKADSSSSEEESSSSEEEKTKKMVATTKPKATAKAALSLPAKQAPQGSRDSSSDSDSSSSEEEEEKTSKSAVKKKPQKVAGGAAPSKPASAKKGKAESSNSSSSDDSSEEEEEKLKGKGSPRPQAPKANGTSALTAQNGKAAKNSEEEEEEKKKAAVVVSKSGSLKKRKQNEAAKEAETPQAKKIKLQTPNTFPKRKKGEKRASSPFRRVREEEIEVDSRVADNSFDAKRGAAGDWGERANQVLKFTKGKSFRHEKTKKKRGSYRGGSISVQVNSIKFDSE
B5: ALG1 (protein, UniProt Q9BT22 1-464, looked up)
Chitobiosyldiphosphodolichol …: MAASCLVLLALCLLLPLLLLGGWKRWRRGRAARHVVAVVLGDVGRSPRMQYHALSLAMHGFSVTLLGFCNSKPHDELLQNNRIQIVGLTELQSLAVGPRVFQYGVKVVLQAMYLLWKLMWREPGAYIFLQNPPGLPSIAVCWFVGCLCGSKLVIDWHNYGYSIMGLVHGPNHPLVLLAKWYEKFFGRLSHLNLCVTNAMREDLADNWHIRAVTVYDKPASFFKETPLDLQHRLFMKLGSMHSPFRARSEPEDPVTERSAFTERDAGSGLVTRLRERPALLVSSTSWTEDEDFSILLAALEKFEQLTLDGHNLPSLVCVITGKGPLREYYSRLIHQKHFQHIQVCTPWLEAEDYPLLLGSADLGVCLHTSSSGLDLPMKVVDMFGCCLPVCAVNFKCLHELVKHEENGLVFEDSEELAAQLQMLFSNFPDPAGKLNQFRKNLRESQQLRWDESWVQTVLPLVMDT
B6: RPP30 (protein, UniProt P78346 2-268, looked up)
Ribonuclease P protein …: AVFADLDLRAGSDLKALRGLVETAAHLGYSVVAINHIVDFKEKKQEIEKPVAVSELFTTLPIVQGKSRPIKILTRLTIIVSDPSHCNVLRATSSRARLYDVVAVFPKTEKLFHIACTHLDVDLVCITVTEKLPFYFKRPPINVAIDRGLAFELVYSPAIKDSTMRRYTISSALNLMQICKGKNVIISSAAERPLEIRGPYDVANLGLLFGLSESDAKAAVSTNCRAALLHGETRKTAFGIISTVKKPRPSEGDEDCLPASKKAKCEG
B7: TAMM41 (protein, UniProt Q96BW9 1-452, looked up)
Phosphatidate …: MALQTLQSSWVTFRKILSHFPEELSLAFVYGSGVYRQAGPSSDQKNAMLDFVFTVDDPVAWHSKNLKKNWSHYSFLKVLGPKIITSIQNNYGAGVYYNSLIMCNGRLIKYGVISTNVLIEDLLNWNNLYIAGRLQKPVKIISVNEDVTLRSALDRNLKSAVTAAFLMLPESFSEEDLFIEIAGLSYSGDFRMVVGEDKTKVLNIVKPNIAHFRELYGSILQENPQVVYKSQQGWLEIDKSPEGQFTQLMTLPKTLQQQINHIMDPPGKNRDVEETLFQVAHDPDCGDVVRLGLSAIVRPSSIRQSTKGIFTAGKSFGNPCVTYLLTEWLPHSWLQCKALYLLGACEMLSFDGHKLGYCSKVQTGITAAEPGGRTMSDHWQCCWKLYCPSEFSETLPVCRVFPSYCFIYQSYRCIGLQKQQHLCSPSSSPSLRQLLPSVLVGYFCCYCHFSKW
B8: CACTIN (protein, UniProt Q8WUQ7 1-758, looked up)
Splicing factor Cactin: MGRDTRSRSRSAGRRGRRRQSQSGSRSRSRSHGRRNRRRREDEGRRRRRRRSRERRSDSEEERWQRSGMRSRSPPRPKWHSRDGSSQSDSGEEQSRGQWARRRRRARSWSPSSSASSSASPGRSQSPRAAAAALSQQQSLQERLRLREERKQQEELMKAFETPEEKRARRLAKKEAKERKKREKMGWGEEYMGYTNTDNPFGDNNLLGTFIWNKALEKKGISHLEEKELKERNKRIQEDNRLELQKVKQLRLEREREKAMREQELEMLQREKEAEHFKTWEEQEDNFHLQQAKLRSKIRIRDGRAKPIDLLAKYISAEDDDLAVEMHEPYTFLNGLTVADMEDLLEDIQVYMELEQGKNADFWRDMTTITEDEISKLRKLEASGKGPGERREGVNASVSSDVQSVFKGKTYNQLQVIFQGIEGKIRAGGPNLDMGYWESLLQQLRAHMARARLRERHQDVLRQKLYKLKQEQGVESEPLFPILKQEPQSPSRSLEPEDAAPTPPGPSSEGGPAEAEVDGATPTEGDGDGDGEGEGEGEAVLMEEDLIQQSLDDYDAGRYSPRLLTAHELPLDAHVLEPDEDLQRLQLSRQQLQVTGDASESAEDIFFRRAKEGMGQDEAQFSVEMPLTGKAYLWADKYRPRKPRFFNRVHTGFEWNKYNQTHYDFDNPPPKIVQGYKFNIFYPDLIDKRSTPEYFLEACADNKDFAILRFHAGPPYEDIAFKIVNREWEYSHRHGFRCQFANGIFQLWFHFKRYRYRR
B9: MSN (protein, UniProt P26038 2-577, looked up)
Moesin: PKTISVRVTTMDAELEFAIQPNTTGKQLFDQVVKTIGLREVWFFGLQYQDTKGFSTWLKLNKKVTAQDVRKESPLLFKFRAKFYPEDVSEELIQDITQRLFFLQVKEGILNDDIYCPPETAVLLASYAVQSKYGDFNKEVHKSGYLAGDKLLPQRVLEQHKLNKDQWEERIQVWHEEHRGMLREDAVLEYLKIAQDLEMYGVNYFSIKNKKGSELWLGVDALGLNIYEQNDRLTPKIGFPWSEIRNISFNDKKFVIKPIDKKAPDFVFYAPRLRINKRILALCMGNHELYMRRRKPDTIEVQQMKAQAREEKHQKQMERAMLENEKKKREMAEKEKEKIEREKEELMERLKQIEEQTKKAQQELEEQTRRALELEQERKRAQSEAEKLAKERQEAEEAKEALLQASRDQKKTQEQLALEMAELTARISQLEMARQKKESEAVEWQQKAQMVQEDLEKTRAELKTAMSTPHVAEPAENEQDEQDENGAEASADLRADAMAKDRSEEERTTEAEKNERVQKHLKALTSELANARDESKKTANDMIHAENMRLGRDKYKTLRQIRQGNTKQRIDEFESM

The first data set relates to mSWI/SNF complexes. The data set is described as follows: mSWI/SNF complex purification with HA-tagged baits and mass spectrometry (peptide counts). Also noted: species or system human. The following applies: 293_HA-BRD7 bait purification, mass spectrometry; total peptide count per identified protein.
The molecule B1 came in with a Total of 1.

Still in this data set, the particulars now being: 293_HA-BRD7 bait purification, mass spectrometry; total peptides per co-purified protein.
B2 displayed a Total of 1.
For B3, the Total is reported as 1.
The same measure, in the same setting: the result for B4 reads 1; that for B5, 1.
On the same count and under the same terms, for B6 the value was 1; for B7, 1; for B8, 1.
The same measure, in the same setting: for B9 the value was 1.

The data set is the same for the next values; noted with them: 293_HA-BRD7 bait purification, mass spectrometry; unique peptide count per identified protein.
Consider B1, for which the Unique was determined as 1.

The same data set, now with this note: 293_HA-BRD7 bait purification, mass spectrometry; unique peptides per co-purified protein.
As to B2, the Unique is on record as 1.
Same read-out and setting: the result for B3 reads 1; that for B4, 1.
The molecule B5 gave a Unique of 1.
On the same count and under the same terms, for B6 the value was 1; for B7, 1; for B8, 1.
For the molecule B9, the Unique is listed as 1.
